# Cleaved PARP in drug-treated melanoma cells

All values are for the listed drug together with RKI-983 (2 µM): C[C@@H](N)c1ccc(C(=O)Nc2ccnc3[nH]ccc23)cc1

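The test systems are human melanoma cell lines, treated with two drugs together for 72 h and then stained and imaged. Each value is the cleaved-PARP-positive fraction of nuclei relative to DMSO-treated wells, in %, so that 100 equals the control and higher values mean more apoptosis. Every drug was used at one fixed concentration, the higher of two screened. The file gives one value for each pair and line, without errors, so small differences may be noise. The marker varies much from line to line, for technical or biological reasons.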 Only some of the drugs and lines screened are listed, without regard to their results. A dash means that no value is listed here.

| Partner | UACC-62 | LOX IMVI | WM1745 | A2058 | LB2518-MEL | WM451Lu | 501mel | RPMI-7951 |
|---|---|---|---|---|---|---|---|---|
| CC[C@]1(O)C[C@H]2CN(CCc3c([nH]c4ccccc34)[C@@](C(=O)OC)(c3cc4c(cc3OC)N(C=O)[C@H]3[C@@](O)(C(=O)OC)[C@H](OC(C)=O)[C@]5(CC)C=CCN6CC[C@]43[C@@H]65)C2)C1 at 0.0005 µM | 171 | 588 | 214 | 1370 | 358 | 1090 | - | 823 |
| Clc1ccc(Nc2nnc(Cc3ccncc3)c3ccccc23)cc1 at 10 µM | 378 | 157 | 202 | 324 | 70.1 | 102 | - | 179 |
| Cn1cnc2c(F)c(Nc3ccc(Br)cc3Cl)c(C(=O)NOCCO)cc21 at 0.075 µM | 295 | 380 | 181 | 148 | 279 | 208 | - | 411 |
| CCCS(=O)(=O)Nc1ccc(F)c(C(=O)c2c[nH]c3ncc(Cl)cc23)c1F at 0.4 µM | 354 | 153 | 187 | 98.8 | 204 | 294 | - | 107 |
| Cn1c(=O)n(-c2ccc(C(C)(C)C#N)cc2)c2c3cc(-c4cnc5ccccc5c4)ccc3ncc21 at 0.02 µM | 257 | 149 | 161 | 372 | 107 | 519 | - | 55.3 |
| C[C@@H](Oc1cc(-c2cnn(C3CCNCC3)c2)cnc1N)c1c(Cl)ccc(F)c1Cl at 1 µM | 110 | 131 | 532 | 192 | - | 114 | - | 124 |
| N#CC[C@H](C1CCCC1)n1cc(-c2ncnc3[nH]ccc23)cn1 at 5 µM | 168 | 136 | 148 | 279 | 133 | 105 | - | 106 |
| CCc1ccc(CCOc2ccc(CC3SC(=O)NC3=O)cc2)nc1 (stereo not shown) at 10 µM | 534 | 178 | - | 206 | 104 | 41.9 | 150 | 63.2 |
| O=C(O)C(=O)Nc1sc2c(c1C(=O)O)CCNC2 at 8.33 µM | 229 | 63.6 | - | 116 | 79.5 | 64.5 | 116 | 125 |
| COc1cc(Nc2ncc(F)c(Nc3ccc4c(n3)NC(=O)C(C)(C)O4)n2)cc(OC)c1OC at 2 µM | 261 | 270 | 398 | 270 | 108 | 464 | - | 312 |
| Cn1cc(/C=C2\C(=O)Nc3cccnc32)c2ccccc21 at 2 µM | 300 | 301 | - | 297 | 62.1 | 122 | 98.8 | 175 |
| N.N.[Cl][Pt][Cl] at 8 µM | 122 | 222 | 173 | 233 | 139 | 77.7 | - | 121 |
| CO[C@H]1C[C@@H]2CC[C@@H](C)[C@@](O)(O2)C(=O)C(=O)N2CCCC[C@H]2C(=O)O[C@H]([C@H](C)C[C@@H]2CC[C@@H](OCCO)[C@H](OC)C2)CC(=O)[C@H](C)/C=C(\C)[C@@H](O)[C@@H](OC)C(=O)[C@H](C)C[C@H](C)/C=C/C=C/C=C/1C at 0.1 µM | 456 | 304 | 161 | 385 | 156 | 1150 | - | 112 |
| CCCCCCCCCCCC1=C(O)C(=O)C=C(O)C1=O at 6 µM | 276 | 144 | - | 333 | 213 | 146 | 190 | 207 |
| CCN(CC)CCNC(=O)c1c(C)[nH]c(/C=C2\C(=O)Nc3ccc(F)cc32)c1C at 2 µM | 230 | 90.0 | 705 | 400 | - | 140 | - | 425 |
| CNC(=O)c1cc(Oc2ccc(NC(=O)Nc3ccc(Cl)c(C(F)(F)F)c3)cc2)ccn1 at 2 µM | 139 | 253 | 161 | 242 | 147 | 216 | - | 301 |
| CCN(CC)CCCCNc1ncc2cc(-c3cc(OC)cc(OC)c3)c(NC(=O)NC(C)(C)C)nc2n1 at 0.5 µM | 385 | 165 | - | 211 | 123 | 144 | 56.3 | 60.6 |
| O=C1NC(=O)/C(=C/c2ccc(-c3ccc(F)cc3O)o2)S1 at 5 µM | 161 | 128 | - | 314 | 111 | 31.5 | 70.8 | 179 |
| Cc1ccc(Nc2nccc(N(C)c3ccc4c(C)n(C)nc4c3)n2)cc1S(N)(=O)=O at 2 µM | 283 | 95.3 | 104 | 208 | 86.0 | 44.2 | - | 247 |
| O=C(/C=C/c1cccnc1)NCCCCC1CCN(C(=O)c2ccccc2)CC1 at 0.05 µM | 209 | 67.1 | 221 | 223 | 1760 | 222 | - | 226 |
| NC(=O)Nc1cc(-c2cccc(F)c2)sc1C(=O)N[C@H]1CCCNC1 at 0.1 µM | 248 | 84.9 | 733 | 199 | 224 | 138 | - | 400 |
| Cc1nc(Nc2ncc(C(=O)Nc3c(C)cccc3Cl)s2)cc(N2CCN(CCO)CC2)n1 at 0.02 µM | 164 | 204 | 265 | 395 | 84.0 | 600 | - | 420 |
| COc1cc2c(Oc3ccc4[nH]c(C)cc4c3F)ncnc2cc1OCCCN1CCCC1 at 2 µM | 145 | 383 | 148 | 199 | 93.7 | 133 | - | 98.7 |
| CN(c1ncccc1CNc1nc(Nc2ccc3c(c2)CC(=O)N3)ncc1C(F)(F)F)S(C)(=O)=O at 0.4 µM | 153 | 181 | 342 | 407 | - | 125 | - | 915 |
| C/C(O)=C(\C#N)C(=O)Nc1cc(Br)ccc1Br at 10 µM | 394 | 233 | - | 168 | 43.0 | 240 | 78.0 | 287 |
| CS(=O)(=O)c1ccc(C(=O)Nc2ccc(Cl)c(-c3ccccn3)c2)c(Cl)c1 at 5 µM | 157 | 76.6 | 136 | 354 | 189 | 96.1 | - | 298 |
| Cn1cc(C2=C(c3cn(C4CCN(Cc5ccccn5)CC4)c4ccccc34)C(=O)NC2=O)c2ccccc21 at 4 µM | 321 | 138 | 375 | 273 | 491 | 110 | - | 478 |
| Cn1nnc2c(C(N)=O)ncn2c1=O at 10 µM | 220 | 274 | 151 | 582 | - | 235 | - | 141 |
| C=CCn1c(=O)c2cnc(Nc3ccc(N4CCN(C)CC4)cc3)nc2n1-c1cccc(C(C)(C)O)n1 at 0.1 µM | 234 | 361 | 290 | 302 | 101 | 138 | - | 88.2 |
| C=C(c1ccc(C(=O)O)cc1)c1cc2c(cc1C)C(C)(C)CCC2(C)C at 10 µM | 388 | 32.8 | 473 | 322 | 304 | 84.7 | - | 658 |
| COc1ccc(-c2ccc3c(N4CCOCC4)nc(N4C[C@@H](C)O[C@@H](C)C4)nc3n2)cc1CO at 0.1 µM | 356 | 149 | - | 442 | 212 | 390 | 33.3 | 172 |
| CC(C)C[C@H](NC(=O)[C@H](Cc1ccccc1)NC(=O)c1cnccn1)B(O)O at 0.005 µM | 329 | 386 | 620 | 2690 | 6980 | 993 | - | 684 |
| CS(=O)(=O)CCNCc1ccc(-c2ccc3ncnc(Nc4ccc(OCc5cccc(F)c5)c(Cl)c4)c3c2)o1 at 4 µM | 257 | 119 | 212 | 218 | 247 | 186 | - | 207 |
| NC(=O)c1ccc(N(C(N)=O)c2c(F)cccc2F)nc1-c1ccc(F)cc1F at 2 µM | 131 | 137 | 119 | 150 | 108 | 279 | - | 76.8 |
| CCCCCCCCc1ccc(CCC(N)(CO)CO)cc1 at 10 µM | 385 | 420 | 3000 | 1390 | 4350 | 1220 | - | 6680 |
| O=C(Nc1ccccc1)c1cc([N+](=O)[O-])ccc1Cl at 10 µM | 283 | 271 | - | 185 | 328 | 63.9 | 36.5 | 43.6 |

Source: doi:10.1371/journal.pone.0140310, primary screening data, rounded.